Experimental data taken from PMC8298602, “14-3-3-protein regulates Nedd4-2 by modulating interactions between HECT and WW domains” (Communications Biology, 2021).
No constants are given. Whether binding was seen depends on the method and setting.

The chains behind the UniProt entries cited, without tags or fusion partners. Residues count along the entry.
UniProt Q96PU5, residues 335-455: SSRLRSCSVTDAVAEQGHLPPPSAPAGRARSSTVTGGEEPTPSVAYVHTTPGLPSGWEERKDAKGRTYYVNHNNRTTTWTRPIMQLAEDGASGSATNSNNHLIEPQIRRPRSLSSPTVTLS

Molecular target: phosphorylated Nedd4-2^335–455 (human) (UniProt Q96PU5)
Assay: AUC; sedimentation velocity, 20 °C, 20 mM Tris-HCl pH 7.5, 150 mM NaCl, 1 mM TCEP; 1 μM 14-3-3η with Nedd4-2^335–455 variants (0.05 – 5 μM); apparent KD, sw isotherm fitted with A + B ⇌ AB, 14-3-3η dimer + one Nedd4-2 molecule; both purified

Q: For “phosphorylated Nedd4-2^335–455 (from UniProt Q96PU5 335-455) (domain or fragment)”, which binding is on record?
A: no binding
